Record: PubChem BioAssay AID504793 (Drosophila RNAi Screening Center, 2011)
The deposit covers about 23,000 reagents; shown is an unselected part of those that have a named target and a result. Over the whole deposit, 62 (0.27%) were called active. 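Calls come from follow-up tests whose scores are not deposited, so confirmed genes may have low counts here; counts are not normalised per plate.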 Raw values are not corrected between plates. Reagents against one gene are numbered here. A plus sign joins genes that one reagent is predicted to hit.

Purpose: 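Whole-genome screen for parts of the DNA damage checkpoint at G2/M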 (primary screen)
System: Drosophila S2R+ cells
Knock-down reagent: long dsRNA against Drosophila genes, about 0.25 µg dsRNA per well
Time to read-out: 4 days of dsRNA, then 4 hours of drug before read-out
Conditions: doxorubicin 0.5 µM for 4 hours to cause double-strand breaks, in cells also given a low, harmless dose of dsRNA against nbs to sensitise the assay
Measurement: 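Per-well count of mitotic cells stained for phospho-histone H3 after doxorubicin exposure, used as mitotic index; counts are raw and not normalised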
Direction: mitotic cells: higher = more cells in mitosis, weaker G2 arrest
Call rule: 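Genes are called active only when high mitotic counts were reproduced with independent dsRNAs and mitosis was checked for delay without damage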
Meaning of the calls: active = confirmed in follow-up tests; inactive = not confirmed

Target gene | dsRNA no. | mitotic cells, replicate 1 | Outcome
CG14074 | 1 | 4 | inactive
CG14074 | 2 | 9 | inactive
aqrs | 1 | 8 | inactive
alc | 1 | 5 | inactive
alc | 2 | 7 | inactive
alc | 3 | 10 | inactive
CG15717 | 1 | 6 | inactive
CG14384 | 1 | 7 | inactive
Usp32 | 1 | 5 | inactive
pds5 | 1 | 4 | inactive
ana2 | 1 | 8 | inactive
ana2 | 2 | 7 | inactive
CG32262 | 1 | 8 | inactive
CG32262 | 2 | 5 | inactive
CG12448 | 1 | 7 | inactive
CG12432 (retired record) | 1 | 10 | inactive
CG12432 (retired record) | 2 | 8 | inactive
CG1965 | 1 | 7 | inactive
CG1965 | 2 | 12 | inactive
Snrk | 1 | 9 | inactive
Snrk | 2 | 15 | inactive
Vha100-3 | 1 | 3 | inactive
Plekhm1 | 1 | 8 | inactive
CG5909 | 1 | 10 | inactive
CG5909 | 2 | 13 | inactive
CG9593 | 1 | 7 | inactive
CG15615 | 1 | 5 | inactive
CG15615 | 2 | 4 | inactive
CG14853 | 1 | 17 | inactive
CG14853 | 2 | 18 | inactive
CG7202 | 1 | – | inactive
CG7202 | 2 | 6 | inactive
eRF3 | 1 | 7 | inactive
Scamp | 1 | 15 | inactive
Scamp | 2 | 3 | inactive
CG18262 | 1 | 13 | inactive
CG18262 | 2 | 5 | inactive
esc | 1 | 2 | inactive
esc | 2 | 7 | inactive
CG5050 | 1 | – | inactive
Trissin | 1 | 5 | inactive
CG33330 (retired record) | 1 | 12 | inactive
CG33330 (retired record) | 2 | 12 | inactive
CG33330 (retired record) | 3 | 1 | inactive
alrm | 1 | 11 | inactive
Octbeta3R | 1 | 5 | inactive
Octbeta3R | 2 | 6 | inactive
Octbeta3R | 3 | 4 | inactive
Octbeta3R | 4 | 11 | inactive
Octbeta3R | 5 | 4 | inactive
Octbeta3R | 6 | 9 | inactive
Octbeta3R | 7 | 5 | inactive
Octbeta3R | 8 | 5 | inactive
wds | 1 | 45 | active
CG15385 | 1 | 5 | inactive
mid | 1 | 9 | inactive
mid | 2 | 19 | inactive
mid | 3 | 1 | inactive
CR33319 | 1 | 10 | inactive
btl | 1 | 6 | inactive
btl | 2 | 7 | inactive
CG6900 (retired record) | 1 | 5 | inactive
Rab30 | 1 | 7 | inactive
Rab30 | 2 | 9 | inactive
mav | 1 | 10 | inactive

The list goes on (10 carried over from the part before).
Target gene | dsRNA no. | mitotic cells, replicate 1 | Outcome
mid | 1 | 9 | inactive
mid | 2 | 19 | inactive
mid | 3 | 1 | inactive
CR33319 | 1 | 10 | inactive
btl | 1 | 6 | inactive
btl | 2 | 7 | inactive
CG6900 (retired record) | 1 | 5 | inactive
Rab30 | 1 | 7 | inactive
Rab30 | 2 | 9 | inactive
mav | 1 | 10 | inactive
apn | 1 | 4 | inactive
Sox15 | 1 | 17 | inactive
Sox15 | 2 | 4 | inactive
ppk | 1 | 2 | inactive
ppk | 2 | 9 | inactive
CG8852 | 1 | 4 | inactive
CG8852 | 2 | 7 | inactive
CG13308 | 1 | 5 | inactive
CG32834 | 1 | 11 | inactive
CG32834 | 2 | 11 | inactive
Hr39 | 1 | 9 | inactive
Hr39 | 2 | 7 | inactive
CG15258 | 1 | 6 | inactive
CG30109 + CG30108 | 1 | 1 | inactive
upd1 | 1 | 8 | inactive
upd1 | 2 | 6 | inactive
CG42748 | 1 | 8 | inactive
CG42748 | 2 | 6 | inactive
CG42748 | 3 | 5 | inactive
CG42748 | 4 | 6 | inactive
CG15676 | 1 | 7 | inactive
CG15676 | 2 | 7 | inactive
CG15012 | 1 | 4 | inactive
CG7518 | 1 | 7 | inactive
CG7518 | 2 | 7 | inactive
Acp65Aa | 1 | 5 | inactive
Acp65Aa | 2 | 4 | inactive
BuGZ | 1 | 4 | inactive
BuGZ | 2 | 5 | inactive
BuGZ | 3 | 2 | inactive
Nepl15 | 1 | 3 | inactive
Dpm1 | 1 | 5 | inactive
Polr3F | 1 | 6 | inactive
CG31360 | 1 | 10 | inactive
CG31693 | 1 | 5 | inactive
Or85b | 1 | 9 | inactive
RpL23A | 1 | 7 | inactive
RpL23A | 2 | 7 | inactive
RpL23A | 3 | 4 | inactive
CG14448 | 1 | 5 | inactive
CG14448 | 2 | 1 | inactive
Mur89F | 1 | 6 | inactive
Mur89F | 2 | 5 | inactive
tai | 1 | 2 | inactive
CG13594 | 1 | 8 | inactive
CG13594 | 2 | 7 | inactive
